In PubChem BioAssay AID493014 (National Center for Advancing Translational Sciences (NCATS), 2011):
The other results are listed elsewhere or left out. The main result of the screen is listed elsewhere. These columns were measured beside it and carry no call. Compounds called inactive in the main read-out are mostly missing here. Words in brackets tell the shape of the fitted curve; partial curves, single points and poor fits give uncertain potencies.

Assay: qHTS Assay to Find Inhibitors of Chronic Active B-Cell Receptor Signaling
Details: ABC-DLBCL IkBa-CBG/CBR reporter, luminescence ratio (green luciferase fused to IkBa over red control in TMD8 lymphoma cells), 4 h
Outline: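 TMD8 human ABC-DLBCL cells with doxycycline-inducible IκBα–green luciferase fusion and unfused red luciferase, in 0.5% FBS medium; compounds up to 46 uM, 4 h at 37C. Green/red luminescence ratio, filter-overlap corrected, fitted to concentration-response curves.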

[1] = measured here: CBR red luminescence, cell number
[2] = measured here: IkBa-CBG green luminescence

Compound | AC50 [1] | AC50 [2]
N/C(=N\OC(=O)CCCOc1ccccc1)c1ccncc1 | 17.8 µM [rising, partial curve, poor fit] | 
Cc1cccc(C(=O)Nc2nsc(N)n2)c1 | 1.46 µM [falling, full curve, poor fit] | 
FC(F)(F)c1nc2ccccc2c2nc3ccccc3n12 | 0.00411 µM [rising, full curve, poor fit] | 
NNC(=O)c1ccccc1OCCOc1ccccc1 | 10 µM [falling, partial curve] | 
O=C(NCCC1=CCCCC1)C1CCCN(S(=O)(=O)c2cnc[nH]2)C1 (configuration not stated) | 1.84 µM [falling, full curve, poor fit] | 
CCn1c(O)c(C=Nc2ccccc2)n(-c2ccccc2)c1=S | 32.6 µM [falling, single point] | 
C1CCN=C(NC23CC4CC(CC(C4)C2)C3)CC1 | 3.66 µM [rising, full curve, poor fit] | 
Cc1ccc(C(C)(C)C)cc1S(=O)(=O)Nc1cccc(C(=O)N2CCN(c3ccccn3)CC2)c1 | 14.6 µM [falling, single point] | 
O=C(NNc1nc(=O)c2cccnc2s1)c1ccccc1O | 0.562 µM [falling, full curve] | 
c1ccc(-n2nnc(-c3cccnc3)n2)cc1 | 11.2 µM [falling, single point] | 
Cc1cc(C)nc(SCC(=O)Nc2ccc(S(=O)(=O)Nc3ncccn3)cc2)n1 | 10 µM [falling, partial curve] | 
CCOC(=O)Cn1ccc(NC(=O)COc2ccc(F)cc2F)n1 | 3.55 µM [falling, full curve] | 
CO/N=C/C(=N\Nc1cc(OC)cc(OC)c1)C(=O)c1ccccc1 | 3.16 µM [falling, single point] | 
COc1ccc(Cl)cc1-c1nc(-c2ccncc2)no1 | 6.51 µM [rising, single point] | 
O=C(O)c1cccc(N2C(=O)c3ccc(Oc4ccc(Cl)cc4)cc3C2=O)c1 | 8.91 µM [falling, single point] | 
O=C1Nc2ccccc2/C1=N\N=C\c1ccc(O)c(O)c1 | 15.8 µM [falling, single point] | 
COc1cc(C(=O)Nc2nc3ccc4nc(C)sc4c3s2)cc(OC)c1OC | 5.01 µM [falling, full curve] | 
O=C(NCCCn1ccnc1)C(=O)c1c[nH]c2ccccc12 | 6.31 µM [falling, partial curve] | 
N#CC1=C(N)C(C#N)(C#N)C(c2cccnc2)C2CC(c3ccccc3)CC=C12 (configuration not stated) | 31.6 µM [rising, single point] | 35.5 µM [falling, single point]
CC(=O)Nc1ccc(S(=O)(=O)Nc2nc3ccccc3nc2Sc2nncn2C)cc1 | 35.5 µM [falling, partial curve, poor fit] | 
CCn1c(C)nc2cc(C(=O)OC(C(F)(F)C(F)F)C(F)(F)C(F)F)ccc21 | 29.1 µM [rising, partial curve, poor fit] | 
Nc1ccc(-c2nc3ccc(N)cc3s2)cc1 | 28.2 µM [falling, single point] | 

Another view of 2 compounds above:

| Compound | AC50 [1] | AC50 [2] |
| --- | --- | --- |
| O=C(NCCC1=CCCCC1)C1CCCN(S(=O)(=O)c2cnc[nH]2)C1 (configuration not stated) | 1.84 µM [falling, full curve, poor fit] |  |
| C1CCN=C(NC23CC4CC(CC(C4)C2)C3)CC1 | 3.66 µM [rising, full curve, poor fit] |  |

(continued)

Compound | AC50 [1] | AC50 [2]
O=C(Cn1c(NCCCO)nc2ccccc21)c1ccc(Br)cc1 | 35.5 µM [falling, single point] | 
CCCc1nn(C)c(C(=O)Nc2ccc(C(C)(C)C)cc2)c1Cl | 3.26 µM [rising, full curve, poor fit] | 
Cn1cc(-c2nc3ccccc3[nH]2)c2ccccc21 | 23.1 µM [falling, single point] | 
CCOC(=O)C1(Cc2cccc(Cl)c2)CCCN(C(=O)c2cc(C)n(C)n2)C1 (configuration not stated) |  | 5.01 µM [falling, partial curve, poor fit]
Cc1ccc(S(=O)(=O)N2CCC(C(=O)NNC(=O)c3cccnc3)CC2)cc1 | 3.16 µM [rising, partial curve, poor fit] | 
Cc1nc(-c2ccc(NC(=O)/C=C\C(=O)O)cc2)cs1 | 22.4 µM [falling, single point] | 
CCCCOc1c(Br)cc(/C=N/O)cc1OCC | 18.4 µM [rising, partial curve] | 16.4 µM [falling, single point]
COCCNC(=S)N/N=C(\C)c1cccc([N+](=O)[O-])c1 |  | 18.4 µM [falling, partial curve, poor fit]
CCCCCCCNC(=O)C1(CC2CC(c3ccccc3)=NO2)CCN(C(=O)OC(C)(C)C)CC1 (configuration not stated) | 1.3 µM [rising, full curve] | 
O=C(/C=C/c1ccc(Cl)cc1)c1cccnc1 | 7.31 µM [falling, single point] | 
Cc1cc(Oc2ncccc2[N+](=O)[O-])c2cc(Cl)ccc2n1 | 11.2 µM [falling, single point] | 
O=C(Nc1ccc2c(c1)N(S(=O)(=O)c1cccs1)CCC2)c1c(F)cccc1Cl | 4.11 µM [rising, partial curve] | 
COc1cc(-c2nc(-c3ccncc3)no2)cc(OC)c1OC | 1.84 µM [rising, full curve, poor fit] | 
O=C(N1CCCC1)N1CCN(c2ncnc3c(-c4ccc(Cl)cc4)nsc23)CC1 | 10 µM [rising, partial curve, poor fit] | 
COC(=O)C1=C(N)Oc2cc(C)n(CCN3CCOCC3)c(=O)c2C1c1cccnc1 (configuration not stated) | 2.82 µM [rising, full curve, poor fit] | 
CCOC(=O)c1c(NC(=O)CN2C(=O)NC3(CCCCC3C)C2=O)sc(C)c1C (configuration not stated) | 2.31 µM [falling, single point] | 
C=CCn1c(SCc2c(C(=O)OC)sc(N)c2C(=O)OC)nnc1-c1ccc(Cl)cc1 | 20.6 µM [falling, single point] | 
COc1ccc(C(=O)C2CCCN(Cc3cccn3-c3ccccn3)C2)c(C)c1 (configuration not stated) | 35.5 µM [falling, single point] | 
Cn1cccc1C(=O)OCC(=O)Nc1ccc2c(c1)OCCO2 | 29.1 µM [rising, single point] | 
COC(=O)[C@H](CCSC)NC(=O)c1cccnc1SC | 5.62 µM [rising, partial curve] | 
CCC/C(O)=C1\C(=O)CC(C)(C)CC1=Nc1ccccc1O | 15.8 µM [falling, single point] | 
O=C(Nc1ccc(Br)cc1)C1CCCN(C2=NS(=O)(=O)c3ccccc32)C1 (configuration not stated) | 2.59 µM [rising, partial curve, poor fit] | 

Compound | AC50 [1] | AC50 [2]
c1ccc([C@H]2CNCCN2CCc2cccc3ccccc23)cc1 | 16.4 µM [falling, partial curve, poor fit] | 
CC1(C)CC(c2nc(-c3ccc([N+](=O)[O-])cc3)cs2)CCO1 (configuration not stated) | 35.5 µM [rising, single point] | 
COCCn1c(SCC(=O)N2CCc3ccccc3C2)nc2cc(Cl)ccc2c1=O | 2.91 µM [falling, partial curve, poor fit] | 
CC1CCc2[nH]c3ccc(C(=O)N4CCCC(C(F)(F)F)C4)cc3c2C1 (configuration not stated) |  | 5.17 µM [rising, partial curve, poor fit]
CC(C)NC(=O)CSc1c2c(nc3ccccc13)CCCC2 | 6.31 µM [falling, partial curve] | 
CC1CCCCN1c1ncnc(N)c1[N+](=O)[O-] (configuration not stated) | 8.91 µM [falling, partial curve] | 
CCN(CC)S(=O)(=O)c1ccc(N2CCCCC2)c(NC(=O)c2ccncc2)c1 | 10 µM [falling, partial curve] | 
COc1cc(/C=N/NC(=O)c2ccncc2)ccc1OCC(=O)Nc1ccccc1 | 25.1 µM [falling, single point] | 
CCC(=O)Nc1c(C(=O)Nc2cccc(OC)c2)oc2ccccc12 | 2 µM [falling, full curve] | 
O=C(/C=C/c1ccc2c(c1)OCO2)Nc1ccc(Cl)cn1 | 3.55 µM [falling, full curve, poor fit] | 
CCOC(=O)c1cc2n(n1)C(C(F)(F)F)CC(C)N2 (configuration not stated) | 0.366 µM [rising, full curve, poor fit] | 
CCOC(=O)C1CCN(C(=O)COc2ccc(Cl)cc2C)CC1 | 16.4 µM [falling, partial curve] | 
COc1ccccc1-c1ccc(SCc2ccccc2F)nn1 | 7.08 µM [falling, partial curve] | 
Cc1ccc(-n2nc3c(=O)n(CCCC(=O)NCc4cccc(Cl)c4)nc(C)c3c2C)cc1 | 10 µM [falling, partial curve, poor fit] | 
CCc1cc2cc(C(=O)Nc3ccc(F)cc3)sc2s1 | 9.2 µM [falling, partial curve] | 
CCOC(=O)c1sc(N)c(C(=O)OC)c1C | 10 µM [rising, partial curve] | 
CN(Cc1ccc(F)cc1)C(=O)c1ccc(NC(=O)CC2SC(N3CCCC3)=NC2=O)cc1 (configuration not stated) | 29.1 µM [rising, single point] | 
COCCN(Cc1ccccc1)C(=O)c1cccc(S(=O)(=O)N2CCCc3ccccc32)c1 | 29.1 µM [falling, single point] | 
CCCC[n+]1ccc(-c2nc3ccc([N+](=O)[O-])cc3[nH]2)cc1 | 18.4 µM [falling, single point] | 
CN1CCN(c2nc(-c3ccccc3)c3cc(Cl)ccc3n2)CC1 | 7.08 µM [falling, partial curve, poor fit] | 
Cc1ccc(C(=O)Nc2nc3ccccc3n2CCN2CCCC2)cc1 | 22.4 µM [falling, single point] | 
